The values below come from PubChem BioAssay AID1487 (National Center for Advancing Translational Sciences (NCATS), 2009).

The list shows a part of the results. These are further read-outs of the screen, such as a control signal, another cell line or another target. No call is given for them. The list favours compounds with an active or inconclusive main result. Potencies come from curve fits of mixed quality, noted in brackets.

The assay is described as follows: qHTS Assay for Modulators of Lamin A Splicing. Particulars: HeLa LMNA splicing GFP/RFP minigene ratio, 48 h. The gist of the method: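 S3 HeLa cells stably expressing lamin A-EGFP splicing minigene plus DsRed2, 600 cells/well, 48 h compound exposure at 37C. Laser-scanning cytometry; analysed as GFP (500-530 nm)/RFP (575-640 nm) total intensity ratio; 0.5% DMSO vehicle.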
(In general: qHTS replaces the single test concentration by a dilution series.)

The mark [1] stands for this setting: measured here: RFP viability control channel.
[2] abbreviates: measured here: GFP splicing reporter channel.

Regarding `O=C(Nc1ccccc1C(F)(F)F)N1CCC(n2c(=O)[nH]c3ccccc32)CC1`, the AC50 under setting [1] is 11.2 µM [rising, partial curve, poor fit].
As for `CCN(CC)S(=O)(=O)c1ccc(Cl)c(C(=O)Oc2cccc(-c3cnc4ccccc4n3)c2)c1`, the half-maximal activity concentration (AC50) under setting [1] was 6.31 µM [rising, single point].
Take `COc1ccc(C(=O)Nc2ccc(N3CCCCC3)cc2)cc1Br`: the AC50 under setting [2] is 3.16 µM [rising, full curve, poor fit].
In the case of `C/C(=N/Nc1nc(-c2ccccc2)cc(-c2ccc(F)cc2)n1)c1cccc(N)c1`, the AC50 under setting [1] is 12.6 µM [rising, partial curve].
Same read-out and setting: to `Cc1cccc(Oc2cnn(C(C)(C)C)c(=O)c2Cl)c1` belongs 35.5 µM [rising, single point].
Consider `Cc1ccc(NC(=O)CSc2nnc(-c3cccnc3)n2CCN2CCCCC2)cc1`, for which the AC50 was 35.5 µM [rising, single point] under setting [2] and 35.5 µM [rising, single point] under setting [1].
Consider `Cc1ccc(NC(=O)OCCN2CCN(Cc3ccccc3)CCC2=O)cc1C`, for which the AC50 reads like this: under setting [2], 31.6 µM [rising, single point]; under setting [1], 22.4 µM [rising, single point].
As to `COc1ccccc1C(=O)Nc1sc(Nc2ccccc2)nc1C(N)=O`, the AC50 under setting [2] is 4.47 µM [falling, full curve].
For `C/C(=N\Nc1cc(N2CCOCC2)nc(C)n1)c1cccc([N+](=O)[O-])c1`, the AC50 under setting [1] was 0.00316 µM [falling, full curve, poor fit].
Consider `Cc1ccc(CCC(=O)Nc2ncc(Cc3cc(Cl)ccc3Cl)s2)o1`, for which the half-maximal activity concentration (AC50) under setting [2] is 3.55 µM [rising, full curve] and the AC50 under setting [1] was 2.82 µM [rising, full curve].
For `COC(=O)/C=C/S(=O)(=O)c1ccc(NC(C)=O)cc1`, the AC50 under setting [1] is 14.1 µM [falling, partial curve].
As for `CC(C)CC(NC(=O)c1ccc(C#CC(C)(C)O)s1)C(=O)O` (stereo not given), the half-maximal activity concentration (AC50) under setting [2] is 0.0282 µM [rising, full curve, poor fit].
Consider `CCCCC(=O)Nc1sc2c(c1C(=O)OCC)CCC(C=O)=C2Cl`, for which the AC50 under setting [2] is 3.55 µM [falling, full curve] and the half-maximal activity concentration (AC50) under setting [1] is 10 µM [falling, partial curve, poor fit].
Consider `O=C(NCc1cccs1)C(=O)NCC(c1ccco1)N1CCN(c2ccc(F)cc2)CC1` (stereo not given), for which the AC50 under setting [2] is 6.31 µM [falling, partial curve] and the AC50 under setting [1] is 6.31 µM [falling, partial curve, poor fit].
Consider `Cc1ccc(NC(=O)CCC(=O)N/N=C/c2cc([N+](=O)[O-])ccc2O)cc1`, for which the AC50 under setting [1] is 31.6 µM [rising, single point].
As to `COC(=O)CNC(=O)C(CCSC)NC(C)=O` (stereo not given), under setting [2], the AC50 is 25.1 µM [rising, partial curve, poor fit].
Take `CN1CCN(c2ncnc3ccc(-c4cccnc4)cc23)CC1`: the AC50 is, setting by setting: under setting [2], 11.2 µM [falling, partial curve]; under setting [1], 14.1 µM [falling, single point].
Take `N[C@@H](Cc1cc(I)c(Oc2cc(I)c(O)c(I)c2)c(I)c1)C(=O)O`: the AC50 under setting [2] is 35.5 µM [falling, single point] and the AC50 under setting [1] is 0.708 µM [falling, single point].
`O=C(NCC1CCCO1)c1ccc(COc2ccccc2Br)cc1` (stereo not given): the AC50 under setting [2] was 31.6 µM [rising, single point].
On to `COc1ccc(CNC(=O)c2c(C)nc3ccccn23)cc1`, for which, under setting [1], the AC50 is 22.4 µM [rising, partial curve].
For `COc1ccc(NC(=O)Cc2coc3ccc4ccccc4c23)cc1S(=O)(=O)N1CCOCC1`, the AC50 under setting [1] is 35.5 µM [rising, single point].
For the compound `Cc1ccc(C(NC(=O)c2ccccc2)C(Cl)(Cl)Cl)cc1` (stereo not given), the AC50 reads like this: under setting [2], 10 µM [rising, partial curve, poor fit]; under setting [1], 17.8 µM [rising, single point].
Regarding `CCn1c(SCC(=O)Nc2cc(C)on2)nnc1-c1ccc(OC)cc1`, the concentration at half-maximal activity (AC50) under setting [1] was 2.51 µM [falling, full curve].
For `C=Cc1c(C)c2cc3nc(cc4[nH]c(cc5nc(cc1[nH]2)C(C)=C5CCC(=O)O)c(CCC(=O)OC)c4C)[C@@]1(C)C3=CC=C(C(=O)OC)[C@H]1C(=O)OC` (tested in a mixture with another compound), the AC50 under setting [2] is 0.0178 µM [falling, full curve, poor fit].
For `O=c1nc2s/c(=C\c3ccc(-c4ccccc4[N+](=O)[O-])o3)c(=O)n2nc1-c1ccccc1`, the concentration at half-maximal activity (AC50) under setting [2] was 0.1 µM [falling, full curve, poor fit] and the AC50 under setting [1] is 0.355 µM [falling, full curve].
Turning to `N#Cc1ccc(CSc2nnc(Nc3ccccc3)s2)cc1`, the AC50 under setting [1] was 35.5 µM [rising, single point].
The same measure, in the same setting: under `Cc1nnc(NC(=O)c2ccc(S(=O)(=O)N(C)Cc3ccccc3)cc2)o1` stands 12.6 µM [rising, partial curve, poor fit]; under `O=C(Nc1cccnc1)c1ccc(Cl)c(S(=O)(=O)N2CCCCCC2)c1`, 12.6 µM [rising, partial curve]; under `COc1ccccc1C(=O)NNC(=S)NC(=O)c1ccco1`, 7.08 µM [rising, partial curve].
For `CCOC(=O)N1CCN(Cc2ccc(O)c3ncccc23)CC1`, under setting [2], the AC50 is 7.94 µM [falling, partial curve].
As to `COc1ccnc(Oc2ccc(F)cc2)c1C(=O)N/C=N/OCc1ccc(Cl)cc1Cl`, the AC50 under setting [1] was 15.8 µM [rising, single point].
`COc1ccccc1N1CCN(C(=O)C2CCC(Cn3c(=S)[nH]c4ccccc4c3=O)CC2)CC1` (stereo not given): the AC50 under setting [2] is 2.24 µM [rising, partial curve] and the AC50 under setting [1] was 3.55 µM [rising, single point].
Consider `Cc1nn(C)cc1CN(C)C(=O)c1sc2cccc(Cl)c2c1Cl`, for which the concentration at half-maximal activity (AC50) under setting [1] is 20 µM [rising, single point].
Same read-out and setting: under `COc1ccc(S(=O)(=O)c2c(O)c3ccc(C(=O)Nc4ccccc4)cc3[nH]c2=O)cc1` stands 0.0224 µM [falling, full curve, poor fit].
As for `Cc1ccc(C(=O)Nc2ccc3cn[nH]c3c2)cc1S(=O)(=O)N1CCOCC1`, the AC50 by setting is: under setting [2], 0.501 µM [falling, full curve, poor fit]; under setting [1], 0.794 µM [falling, full curve, poor fit].
As for `C(=N\Nc1nc2ccccc2[nH]1)/c1c[nH]c2ccccc12`, under setting [1], the AC50 was 3.55 µM [rising, full curve].
On the same count and under the same terms, to `O=S(=O)(NC12CC3CC(CC(C3)C1)C2)c1ccc(F)cc1` belongs 15.8 µM [rising, single point]; to `CC1CCCC(C)N1C(=O)CN1CCN(c2nc(-c3ccc(F)cc3)cs2)CC1` (stereo not given), 14.1 µM [rising, partial curve]; to `CC(C)CCn1c(Sc2nc3ccccc3s2)nc2c1c(=O)[nH]c(=O)n2C`, 35.5 µM [rising, single point].
Turning to `Cc1cccc(-c2noc(CN(C(=O)c3ccc(Br)o3)C(C)C)n2)c1`, the AC50 was 28.2 µM [rising, single point] under setting [2] and 31.6 µM [rising, single point] under setting [1].
Consider `CCCC(c1nnnn1Cc1ccccc1)N1CCC(C(N)=O)CC1` (stereo not given), for which the AC50 is 2.51 µM [rising, partial curve, poor fit] under setting [2] and 2.82 µM [rising, partial curve] under setting [1].
Take `N#Cc1nc(Cc2ccccc2)oc1NCCCn1ccnc1`: under setting [1], the AC50 was 15.8 µM [rising, single point].
Take `Cc1ccc(O)c(C=Nc2cc(C)ccc2O)c1`: the AC50 runs as follows: under setting [2], 11.2 µM [rising, single point]; under setting [1], 25.1 µM [rising, single point].
On to `CCS(=O)(=O)c1ncc(Cl)c(C(=O)NCc2ccc(OC)cc2)n1`, for which the AC50 by setting is: under setting [2], 6.31 µM [falling, full curve]; under setting [1], 5.62 µM [falling, single point].
As to `CCCc1nnc2n1N=C(c1ccc(OC)c(OC)c1)CS2`, the AC50 under setting [1] was 31.6 µM [rising, single point].
Same read-out and setting: to `CCn1c(C)nc([N+](=O)[O-])c1Sc1ccc(F)cc1` belongs 20 µM [rising, partial curve].
`Cc1cccc(N2CCN(C(=O)C3CCN(c4ncnc5c4nc4n5CCCCC4)CC3)CC2C)c1` (stereo not given): the AC50 under setting [2] is 11.2 µM [falling, partial curve].
For the compound `CC(=O)Nc1cccc(Oc2ccc(-c3noc(C)n3)cc2)c1`, the AC50 under setting [1] was 12.6 µM [rising, partial curve].
For `Cc1ccc(C)c(NC(=O)c2cc(-c3cccnc3)nc3ccccc23)c1`, the AC50 was 10 µM [falling, partial curve] under setting [2] and 0.2 µM [falling, full curve, poor fit] under setting [1].
With `CCN(CC)C(=S)SCC(=O)c1ccc(F)cc1`, the half-maximal activity concentration (AC50) by setting is: under setting [2], 20 µM [falling, single point]; under setting [1], 25.1 µM [falling, single point].
On to `Cc1cc(NC(=O)COc2ccc(Cl)cc2Cl)n(CCC#N)n1`, for which the half-maximal activity concentration (AC50) under setting [2] is 14.1 µM [rising, single point] and the concentration at half-maximal activity (AC50) under setting [1] was 20 µM [rising, partial curve].
As for `O=c1[nH]c(=O)n(C2CC(O)C(CO)O2)cc1F` (stereo not given), the concentration at half-maximal activity (AC50) was 2.24 µM [rising, full curve] under setting [2] and 0.00398 µM [rising, full curve, poor fit] under setting [1].
Consider `CCC(C)NC(=O)CCC(=O)N1Cc2ccccc2Oc2ncccc21` (stereo not given), for which, under setting [1], the AC50 is 17.8 µM [rising, partial curve, poor fit].
On to `Cc1ccc(NC(=S)NC(NC(=O)c2ccccc2C)C(Cl)(Cl)Cl)c(C)c1` (stereo not given), for which the AC50 under setting [2] was 35.5 µM [falling, single point] and the AC50 under setting [1] is 35.5 µM [falling, single point].
Regarding `CCOc1ccc(C2=Cc3cc(OC)c(OC)cc3C(=C(Cl)Cl)O2)cc1`, the AC50 under setting [2] was 25.1 µM [rising, single point].

One may read the AC50 as the midpoint of the concentration-response curve, whichever way the signal moves.
